# Measurements: PubChem BioAssay AID493014 (National Center for Advancing Translational Sciences (NCATS), 2011)
# Some of the results follow. Shown are side measurements of this screen, not its main read-out; they come without a call. The list favours compounds with an active or inconclusive main result. The note in brackets gives the kind of curve behind each potency; many fits are weak.
# Experiment: qHTS Assay to Find Inhibitors of Chronic Active B-Cell Receptor Signaling
# Details: ABC-DLBCL IkBa-CBG/CBR reporter, luminescence ratio (green luciferase fused to IkBa over red control in TMD8 lymphoma cells), 4 h
# Procedure, shortened: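 Doxycycline induced both beetle luciferases in TMD8 lymphoma cells; IKK-driven degradation limits the IkappaBalpha-fused green signal, while red luminescence normalises for cell number and nonspecific effects. Compounds tested up to 46 uM, 4 hrs.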
# [1] = measured here: CBR red luminescence, cell number
# [2] = measured here: IkBa-CBG green luminescence
Compound,AC50 [1],AC50 [2]
COc1cccc(C(=O)Nc2cc(NC(=O)c3ccco3)ccc2OC)c1,"4.61 µM [rising, single point]",
Cc1nn(CCCC(=O)Nc2cnn(Cc3ccc(F)cc3)c2)c(C)c1[N+](=O)[O-],"0.1 µM [rising, full curve, poor fit]",
c1ccc(-c2nnc3ccc(N4CCC5(CC4)OCCO5)nn23)cc1,"15.8 µM [falling, single point]",
CC(C)(C)C(=O)NCCCc1nc2ccccc2n1CCCOc1ccc(Cl)cc1,"35.5 µM [falling, single point]",
Cc1ccc2nc(Nc3ccc4[nH]c(=O)[nH]c4c3)c(-n3nc(C)cc3C)nc2c1,,"0.731 µM [rising, full curve, poor fit]"
O=C(CN1C(=O)NC2(CCCCCC2)C1=O)c1ccc2c(c1)OCCO2,"0.082 µM [rising, full curve, poor fit]",
CCOc1ccc(S(=O)(=O)Nc2ccc(F)cc2)c(C)c1C,"29.1 µM [falling, single point]",
COc1ccc(NS(=O)(=O)c2cc(NC(=O)c3cncc(Br)c3)ccc2OC)cc1,"29.1 µM [falling, single point]",
O=C(Nc1nc(-c2ccc(F)cc2)cs1)C1CCN(C(=O)c2ccc(F)cc2)CC1,"23.1 µM [falling, partial curve]",
CCN(CC)S(=O)(=O)c1ccc(/C=C/C(=O)NC2CCCCC2)cc1,"5.01 µM [rising, partial curve, poor fit]",
O=c1c2c3c(sc2nc2n1CCCCC2)CCC3,"0.517 µM [falling, partial curve, poor fit]",
O=C(O)CNC(=O)c1ccc(S(=O)(=O)N2CCOCC2)cc1,"0.461 µM [rising, full curve, poor fit]",
CC(C)n1c(O)c(N=Nc2ccc(Cl)c(C(=O)O)c2)c2ccccc21,"35.5 µM [falling, single point]",
Cc1cc(/C=N/NC(=O)c2cccs2)c(C)n1-c1cnccn1,"35.5 µM [falling, single point]",
CSCCC(NC(=O)COc1ccccc1)C(=O)N(C)Cc1cccc(F)c1 (stereo unspecified),"0.517 µM [rising, full curve, poor fit]",
CC(C)CNc1cc(N2CCCC2)ccc1[N+](=O)[O-],"3.16 µM [falling, single point]",
Cc1cccc(C(=O)NCC(=O)OCC(=O)N2CCN(S(=O)(=O)c3ccc(C)cc3C)CC2)c1,"8.2 µM [rising, partial curve]",
COc1ccccc1NC(=S)NNC(=O)c1ccc(Cl)cc1Cl,"29.1 µM [falling, single point]",
COc1cccc(CNC(=O)CCS(=O)(=O)c2cccc3nsnc23)c1,"4.11 µM [falling, partial curve, poor fit]",
O=C(c1ccc(Cl)cc1)c1cc(-c2ccccn2)c(N2CCOCC2)s1,"14.1 µM [falling, single point]",
O=C(O)c1ccc(/C=N/Nc2ncc(C(F)(F)F)cc2Cl)cc1,"2.24 µM [falling, partial curve, poor fit]",
O=C(NCc1ccccn1)c1ccc(Cl)c(S(=O)(=O)NCc2ccccc2)c1,"0.0164 µM [rising, full curve, poor fit]",

Compound,AC50 [1],AC50 [2]
O=C(CSc1ccccc1)N1CCN(c2ccccc2)CC1,"2.91 µM [rising, single point]",
Cc1ccc(Nc2cccccc2=O)cc1,"8.91 µM [rising, partial curve, poor fit]",
O=C(CSc1nnc(Nc2ccccc2F)s1)Nc1cccc(S(=O)(=O)N2CCCCC2)c1,"18.4 µM [falling, single point]",
Cc1cc(/C=N/NC(N)=S)c(C)n1-c1ccc(Cl)c(Cl)c1,"23.1 µM [falling, single point]","18.4 µM [falling, single point]"
O=C(Nc1nnc(-c2ccc(F)cc2)s1)c1ccco1,"1.12 µM [falling, full curve, poor fit]",
CCS(=O)(=O)C(=C1Nc2ccccc2N1)S(=O)(=O)CC,"29.1 µM [rising, partial curve, poor fit]",
O=C(N/N=C\c1cccc(OC(=O)c2ccco2)c1)c1ccc2c(c1)OCO2,"1.3 µM [falling, full curve]",
Cc1c(C(=O)Nc2cccc([N+](=O)[O-])c2)cnn1-c1ccccc1,"1 µM [rising, partial curve, poor fit]",
COc1ccccc1NC(=O)COC(=O)c1c[nH]c(=O)[nH]c1=O,"6.31 µM [rising, single point]",
CC(C)(C)C1C/C(=C/c2ccccn2)C(=O)/C(=C/c2ccccn2)C1 (stereo unspecified),"7.94 µM [rising, partial curve, poor fit]",
Clc1cccc(Cl)c1CON/C=N/c1ncnc2sccc12,"1.64 µM [rising, full curve, poor fit]",
COc1ccc(OCC(=O)Nc2cccc(C(C)=O)c2)cc1,"0.316 µM [rising, full curve, poor fit]",
O=C(NCc1ccccc1CN1CCCC1)c1cc2cc(Cl)ccc2o1,"14.6 µM [falling, single point]",
Cc1ccc(S(=O)(=O)N2CCCCC2)cc1C(=O)NCc1ccccn1,"1.26 µM [rising, partial curve, poor fit]",
Cc1cc(C(=O)OCC(=O)Nc2cccc(S(=O)(=O)N3CCOCC3)c2)c(C)o1,"16.4 µM [falling, partial curve, poor fit]",
Cc1ccc2nc(Cl)c(/C=N/NC(=O)c3ccccc3O)cc2c1,"8.2 µM [falling, partial curve, poor fit]",
COc1ccc(C2CC(c3ccc(Cl)cc3)=NN2c2ccc(S(N)(=O)=O)cc2)cc1 (stereo unspecified),"9.2 µM [falling, partial curve]",
CCCCNC(=O)c1onc(CSc2ccc(F)cc2)c1C(=O)O,"35.5 µM [falling, single point]",
COCCCn1c(C(=O)NCCC2=CCCCC2)cc2c(=O)n3ccccc3nc21,"15.8 µM [rising, single point]",
CCn1c(=O)c2sccc2n(Cc2cc(C(=O)OC)ccc2OC)c1=O,"10 µM [rising, partial curve, poor fit]",
O=C(Cc1ccc([N+](=O)[O-])cc1)NNC(=O)c1ccc2c(c1)OCO2,"3.16 µM [falling, full curve]",
Cc1coc2cc3oc(=O)c(Cc4ccccc4)c(C)c3cc12,"18.4 µM [falling, single point]",

# Part of the list above in another layout.
Compound | AC50 [1] | AC50 [2]
Cc1cc(/C=N/NC(=O)c2cccs2)c(C)n1-c1cnccn1 | 35.5 µM [falling, single point] | 
CSCCC(NC(=O)COc1ccccc1)C(=O)N(C)Cc1cccc(F)c1 (stereo unspecified) | 0.517 µM [rising, full curve, poor fit] | 
CC(C)CNc1cc(N2CCCC2)ccc1[N+](=O)[O-] | 3.16 µM [falling, single point] | 
Cc1cccc(C(=O)NCC(=O)OCC(=O)N2CCN(S(=O)(=O)c3ccc(C)cc3C)CC2)c1 | 8.2 µM [rising, partial curve] | 

# Following part:

Compound,AC50 [1],AC50 [2]
COCCNc1ncnc2c1c(-c1ccccc1)cn2-c1cccc(Cl)c1,"0.1 µM [rising, full curve, poor fit]",
N=c1c(-c2nc3ccccc3[nH]2)cc(C(=O)c2cccs2)nn1-c1ccccc1,"0.00461 µM [falling, full curve, poor fit]",
COc1ccc2c(c1)C(NC(C)=O)C(=O)N2CCc1ccccc1 (stereo unspecified),"35.5 µM [rising, single point]",
CC(C)N=C(NS(=O)(=O)c1ccccc1)C(Cl)(Cl)Cl,,"4.11 µM [falling, full curve]"
CC(C)(C)c1ccc(-c2noc(CCC(=O)N3CCOCC3)n2)cc1,"35.5 µM [falling, single point]",
Cc1c(CCC(=O)N2CCC[C@H]2C(=O)O)c(=O)oc2c(C)c3oc4c(c3cc12)CCCC4,"31.6 µM [falling, single point]","0.282 µM [falling, full curve, poor fit]"
O=S(=O)(N/N=C\c1cccn1-c1ccccc1)c1ccc2ccccc2c1,"35.5 µM [falling, single point]",
Cc1cc(/C=N/NS(=O)(=O)c2ccc(F)c(Cl)c2)no1,"5.62 µM [rising, single point]",
Cn1nnc(NC(=O)c2ccccc2F)n1,"35.5 µM [falling, single point]",
CN(C)/C=C/c1onc(-c2ccccc2Cl)c1C#N,"8.91 µM [rising, partial curve, poor fit]",
Cc1ccc(NC(=O)C(NS(=O)(=O)c2cccc3nsnc23)C(C)C)nc1 (stereo unspecified),"29.1 µM [falling, single point]",
COc1cccc(NC(=S)N/N=C2/CCCCc3ccccc32)c1,"6.51 µM [rising, partial curve]",
CCCCn1c(CN(C)Cc2ccccc2)nc2c1c(=O)n(C)c(=O)n2C,"29.1 µM [falling, single point]",
COc1cccc(NC(=O)CCNC(=O)Cn2ccc3ccccc3c2=O)c1,"6.51 µM [falling, single point]",
c1ccc(COc2ccc(OCCN3CCCCC3)cc2)cc1,"5.17 µM [rising, full curve, poor fit]",
CCCCN(C)C(=O)c1cc2c(s1)-c1ccccc1S(=O)(=O)C2,"10 µM [rising, partial curve]",
O=C(Nc1nc2c(s1)CCCC2)c1ccc(Br)s1,"8.91 µM [falling, partial curve]",
O=C1CC(c2ccc(Cl)cc2)N=C(NC(=O)c2ccccc2)N1 (stereo unspecified),"2.51 µM [rising, full curve]",
CC1CCC(C(C)C)C(OC(=O)Cn2c(-c3ccc(F)cc3)[n+](C)c3ccccc32)C1 (stereo unspecified),"18.4 µM [falling, single point]",
Cc1cccc(-c2nc(CS(=O)CC(=O)N3CCN(C)CC3)c(C)o2)c1 (stereo unspecified),"32.6 µM [falling, single point]",
